Data as given in patent publication US20190008955A1 (SORRENTO THERAPEUTICS, published 2019).
Results are given in words; binding and its absence hold for the method and conditions named. Some results given as binding are weak or reduced against the parent protein; the word gives no strength. One block for each binder: values may come before it.

Tests used:
[1] = target: human CXCR3 (human) (UniProt P49682); assay: flow cytometry on CHO-CXCR3 cells against control CHO cells
[2] = target: T1, human CXCR3 (human, UniProt P49682 1-368); assay: as above
T1 sequence (looked up): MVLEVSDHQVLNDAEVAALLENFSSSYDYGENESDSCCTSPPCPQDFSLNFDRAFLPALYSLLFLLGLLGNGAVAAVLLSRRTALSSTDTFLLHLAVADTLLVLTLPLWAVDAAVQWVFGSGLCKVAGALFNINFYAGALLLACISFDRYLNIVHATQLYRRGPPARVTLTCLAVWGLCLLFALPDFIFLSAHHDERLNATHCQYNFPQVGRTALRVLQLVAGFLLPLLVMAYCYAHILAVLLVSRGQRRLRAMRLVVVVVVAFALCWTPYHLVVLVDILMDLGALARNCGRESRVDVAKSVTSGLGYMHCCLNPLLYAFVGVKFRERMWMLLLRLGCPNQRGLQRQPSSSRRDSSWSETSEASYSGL

[3] = target: human CXCR3 (human) (UniProt P49682); assay: flow cytometry on CHO-CXCR3 cells, binding over time after washing

B1: 3A3 (antibody, V domains shown)
VH: QVQLVQSGAEVKKPGSSVKVSCKASGGTFNRYAFSWVRQAPGQGPELMGRIMPMFDIASYAQKFQGRLTITADKSTSTAYMELSSLRSDDTAVYYCTQVSGDSDYWGPGTLVTVSS
VL: DIVMTQTPLSLPVTLGQPASISCRSSQSLVHNDGNTYLNWFHQRPGQSPRRLIYKVSNRDFGVPDRFSGSGSGTDFTLRISRVEAEDVGVYYCMQGSHWPLTFGGGTKVEIK
notes: Fully human IgG class
binding [1]: binds

B2: H1 (antibody, V domains shown)
VH: EVQLLESGGGVVQPGRSLRLSCAASGFTFRYYGMHWVRQAPGKGLEWVAAIRNDGSNEYYADSVKGRFTISRDNSKNTLYLEMNSLRAEDTSVYHCARDGFYRGSPYYFDSWGQGTLVTVSS
VL: QAGLTQPPSVSAAPGQKVTISCSGSSSNIGNNYVSWYQQLPGTAPKLLIYDNKRRPSGMPDRFSGSKSGTSATLGITGLQTGDEADYYCGTWDSSLSAVVFGGGTKLTVL
binding [2]: binds

B6: 3A11 (antibody, V domains shown)
VH: QVQLVQSGGGLVKPGGSLRLSCAASGFTFTSSGMNWVRQAPGKGLEWVAYIFPNGKTLYPESVKGRFIITRDNAEKSLFLEMNNLRAEDMGVYYCAIDLNWGSGYWGQGTLVTVSS
VL: SYVLTQPPSVSKGLRQTATLTCTGNINNVGNVGATWLQQHQGHPPKLLSDRNNNRPSGISERFSASRSGNAASLTITGLQPEDEADYYCSAWDTSLGAWVFGGGTKLTVL
notes: Fully human IgG class
binding [1]: binds

Other lines, results leading:

binding [1]: binds
B3: 3C11 (antibody, V domains shown)
VH: EVQLVESGGGLVQPGGSLRLSCSASGFTFSSYAMHWVRQAPGKGLEYVSAISSNGGSTYYADSVKGRFTISRDNSKNTLYLQMSSLRAEDTAVYYCVKSIAAAGTQYYYYYMDVWGKGTTVTVSS
VL: DIQLTQSPSSLSASVGDRVTITCRASQGIGTYLAWFQQKPGKVPKPLIYAASTLQSGVPSRFSGSGSGADFTLTISSLQPEDVATYYCQKYNSVPQTFGQGTKVEIK
notes: Fully human IgG class

binding [2]: binds
B4: C4 (antibody, V domains shown)
VH: QVQLVQSGAEVKKPGSSVKVACKASGGTFSHSAISWVRQAPGQGLEWIGRTIPTLEMASYAQKFQGRVTISADKSTRTGYMELRDLRSEDTAVYYCSTQTPSYTDHWGQGTLVTVSS
VL: EIVLTQSPLSLPVTLGQPASISCNSSQSLLHRDGHTYLHWFQQRPGQSPRRLIYKVSNRDSGVPDKFSGSGSGTEFTLKISRVEAEDVGVYYCMQGTHWPLAFGGGTKLEIK

binding [1]: binds
B5: 32D12 (antibody, V domains shown)
VH: EVQLLESGGGLVQPGGSQRLSCAASGFTFSSYPMTWVRQAPGKGLEWVSAISDGGSGTYYADSVKGRFTISRDNSKNTLYLQMNSLRAEDTAIYYCARYKMGGSYRGLDDWGQGTLVTVSS
VL: LPVLTQPASVSGSPGQPITISCTGTSGNIGSYNYVSWYQQHPGKAPRLLIYDVSLRPSGISSHFSGSKSGNTASLTISGLQAEDEAEYFCLSWTSDKTYVFGSGTKLTVL
notes: Fully human IgG class

binding [1]: binds
binding [3]: binds
B7: 32B12 (antibody, V domains shown)
VH: EVQLVQSGGGLVKSGRSLRLSCTVSGFTFGNSAMSWFRQAPGKGLEWVSSISSSSSYIYYADSVKGRFTISRDNAKNSLYLQMNSLRAEDTAVYYCARDLSGRGYSYLNYWGQGTLVTVSS
VL: SYELTQPPSVSAAPGQKVTISCSGSSSNIGNSYVSWFQQFPGTAPKLVIYENNKRPSGIPDRFSGSKSGTSATLGITGLQTGDEADYYCGTWDSSLSGRVFGGGTKLTVL
notes: Described as a fully human antibody of an IgG class and detected with anti-human IgG (gamma-chain specific); also called anti-CXCR3 antibody 32B12; clone 32B12
